Literature values in patent US20050049309A1, “Regulation of HIF protein levels via deubiquitination pathway” (priority 2003, published 2005).
For at least one compound, name, drawing or mass did not settle the structure.

Tested on: HIF-1α protein
Details: recent studies (literature); cited from earlier work

SMILES: COC1=C2C[C@@H](C)C[C@H](OC)[C@H](O)[C@@H](C)/C=C(\C)[C@H](OC(N)=O)[C@@H](OC)/C=C\C=C(/C)C(=O)NC(=CC1=O)C2=O [geldanamycin]
- HIF-1α protein in cell-lines lacking pVHL: promote the loss of HIF-1α protein
